Test results reported in paper PMC12675575, “A BRET biosensor for measuring uncompetitive engagement of PRMT5 complexes in cells” (Nature Communications, 2025).
Several values for one entry are separate records, joined by “and”; a condition that tells them apart may be missing. Equal values may be shown once. Further values from the same series stand in other lists.

Sequences of proteins named here, by UniProt entry; tags and fusion partners are left off.
UniProt O14744, whole entry: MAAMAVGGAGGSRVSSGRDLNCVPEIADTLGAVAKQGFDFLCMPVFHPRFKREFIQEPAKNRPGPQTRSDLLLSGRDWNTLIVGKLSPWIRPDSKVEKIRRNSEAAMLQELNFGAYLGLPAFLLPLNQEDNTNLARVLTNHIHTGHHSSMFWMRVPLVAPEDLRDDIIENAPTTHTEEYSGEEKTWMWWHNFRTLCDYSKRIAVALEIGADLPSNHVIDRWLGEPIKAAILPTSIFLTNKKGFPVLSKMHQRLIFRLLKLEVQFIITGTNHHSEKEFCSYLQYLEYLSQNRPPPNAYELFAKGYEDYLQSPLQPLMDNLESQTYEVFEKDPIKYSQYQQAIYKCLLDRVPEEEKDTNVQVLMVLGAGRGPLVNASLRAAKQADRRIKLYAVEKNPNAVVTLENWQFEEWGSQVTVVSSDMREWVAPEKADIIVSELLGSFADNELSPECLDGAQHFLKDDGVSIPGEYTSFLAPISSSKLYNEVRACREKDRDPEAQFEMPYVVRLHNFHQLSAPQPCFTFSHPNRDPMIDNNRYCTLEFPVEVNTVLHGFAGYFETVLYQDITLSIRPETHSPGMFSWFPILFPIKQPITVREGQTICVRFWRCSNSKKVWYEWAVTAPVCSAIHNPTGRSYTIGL

Molecular target: T1, NLuc-PRMT5 co-expressed with WDR77 in HCT116 MTAP wild-type cells (Homo sapiens, UniProt O14744)
T1 construct: Horizon Discovery (cells) #PAR-034 and #R02-033 (cells); host or cells: HCT116 MTAP wild-type / MTAP-/-
Test: Live-cell NanoBRET target engagement in HCT116 MTAP wild-type cells (NLuc-PRMT5 + WDR77)
Assay type: cell-based
Conditions: Fig 5A
Protocol: HEK293 cells (ATCC) were cultured in DMEM (Thermo Fisher) + 10% (v/v) FBS (Seredigm), and HCT116 cells (Horizon Discovery, #PAR-034 and #R02-033) were cultured in McCoy’s 5A (Thermo Fisher) + 10% FBS, with incubation in a humidified, 37 °C/5% CO2 incubator. Cells were split 1–3 days prior to performing experiments and used at roughly 80% confluency. […] Cells were transfected according to the manufacturer’s protocol using FuGENE HD (Promega). NanoLuc fusion DNA was diluted into Transfection Carrier DNA (Promega) in Opti-MEM at a ratio of 1:9 (mass/mass), and FuGENE HD was added at a ratio of 1:3 (μg DNA:μL lipid). […] Formed complexes were combined with cells resuspended to a density of 2 × 10^5 cells/mL in Opti-MEM + 1% FBS at a ratio of 1:20 (vol:vol). […] Cells were seeded at a density of 2 × 10^5 cells/mL in Opti-MEM + 1% FBS in 100 μL (96-well). The BRET probe CBH-002 was prepared first as a 100× stock in 100% DMSO (Sigma) and then diluted to a 20× stock in NanoBRET Tracer Dilution buffer (Promega). Test compounds were prepared as 1000× stocks in 100% DMSO and diluted to 10× stocks in Opti-MEM to prepare working stocks. […] NanoBRET Complete 3x Substrate was prepared by combining Nano-Glo Substrate and Extracellular NanoLuc Inhibitor in Opti-MEM, according to the manufacturer’s protocol (Promega).
EC50 values were obtained by fitting the BRET probe and compound affinity curves to a sigmoidal four-parameter fit model in Graphpad Prism:1 Y=Ymin+Ymax−Ymin/1+10^LogEC50−Xh where h is the Hill Slope.
When normalized BRET was used, mBRET values were normalized using2 NormalizedBRET%=(Y−BRETmin)/BRETmax−BRETmin where y = mBRET in the presence of test compound and BRET probe, BRETmin = mBRET at the highest concentration (saturating) of test compound and BRET probe, and BRETmax = mBRET in the presence of vehicle (DMSO) and BRET probe.
Normalized concentration-response curves showing full competition were fit using a 2-parameter model:3 Y=100/1+10^LogEC50−Xh […]

Structure (SMILES): O=C(CCc1ccc2n1[B-](F)(F)[N+]1=C(c3ccc[nH]3)C=CC1=C2)NCCCCC(=O)N1CCC(Nc2cc(C(=O)NC[C@H](O)CN3CCc4ccccc4C3)ncn2)CC1 [CBH-002]
- BRET, CBH-002 + DMSO (Log([CBH-002]) in uM -1.81): 445.3 and 435.06
- BRET, CBH-002 + DMSO (Log([CBH-002]) in uM -2.11): 234 and 269.12 and 249.34
- BRET, CBH-002 + DMSO (Log([CBH-002]) in uM -2.41): 130 and 134.31 and 128.17
